Data: article PMC7583203
These are yes or no findings as the source states them, for the method shown. Binding seen in cells or lysates may run through a third protein. Some entries that bind do so weakly or less than the wild type.

Sequences of proteins named here, by UniProt entry; tags and fusion partners are left off.
UniProt O95863: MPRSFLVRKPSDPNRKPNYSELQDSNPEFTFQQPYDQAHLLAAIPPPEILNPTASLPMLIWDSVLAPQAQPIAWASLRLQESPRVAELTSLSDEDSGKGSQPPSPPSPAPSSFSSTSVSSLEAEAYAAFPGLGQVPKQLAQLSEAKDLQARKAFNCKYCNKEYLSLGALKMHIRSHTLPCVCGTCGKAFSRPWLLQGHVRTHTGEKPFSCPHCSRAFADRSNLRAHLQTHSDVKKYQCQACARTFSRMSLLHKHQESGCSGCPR
UniProt Q9GZV5: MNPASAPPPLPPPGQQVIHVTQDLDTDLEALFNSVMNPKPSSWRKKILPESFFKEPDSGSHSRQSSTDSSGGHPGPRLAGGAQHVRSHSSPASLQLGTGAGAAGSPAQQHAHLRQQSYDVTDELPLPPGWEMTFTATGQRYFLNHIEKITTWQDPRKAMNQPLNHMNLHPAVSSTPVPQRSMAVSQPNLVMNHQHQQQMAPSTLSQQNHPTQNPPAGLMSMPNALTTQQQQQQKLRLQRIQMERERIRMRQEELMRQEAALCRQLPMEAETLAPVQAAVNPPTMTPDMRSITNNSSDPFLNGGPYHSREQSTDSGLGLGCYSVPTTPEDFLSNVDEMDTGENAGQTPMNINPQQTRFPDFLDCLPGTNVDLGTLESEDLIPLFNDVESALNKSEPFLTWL
UniProt P05412: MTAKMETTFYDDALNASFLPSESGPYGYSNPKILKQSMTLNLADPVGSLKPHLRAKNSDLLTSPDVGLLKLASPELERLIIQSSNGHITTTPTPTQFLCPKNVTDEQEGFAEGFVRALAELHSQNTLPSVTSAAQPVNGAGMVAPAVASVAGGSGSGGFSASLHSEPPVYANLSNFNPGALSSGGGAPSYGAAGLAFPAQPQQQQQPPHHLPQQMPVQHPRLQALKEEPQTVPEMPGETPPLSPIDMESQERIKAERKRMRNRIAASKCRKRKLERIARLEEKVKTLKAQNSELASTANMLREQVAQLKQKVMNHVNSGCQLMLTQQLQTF

Columns and labels:
[1] = molecular target: Flag-Snail (UniProt O95863); assay: co-IP; A549 cells transfected with Snail-flag or HA-TAZ for 48 h; lysis in 20 mM Tris-HCl pH 7.4, 150 mM NaCl, 1 mM EDTA, 1% Triton-X100; anti-HA/flag antibody with protein A/G plus agarose, 4 °C overnight; washed three times with PBS; western blot for Snail, TAZ and c-Jun
[2] = molecular target: HA-TAZ (UniProt Q9GZV5); assay: as above

Row | binding [1] | binding [2] | Substance
1 | binds | – | TAZ (from UniProt Q9GZV5 1-400)
2 | – | binds | Snail (from UniProt O95863 1-264)
3 | binds | binds | c-Jun (from UniProt P05412 1-331)
